Laboratory results from the supplement of paper PMC10849652.
This is one part of the list.

Sequences of proteins named here, by UniProt entry; tags and fusion partners are left off. A change or cut given only in a name is not applied to a line headed by its entry.
UniProt O95139, whole entry, looked up: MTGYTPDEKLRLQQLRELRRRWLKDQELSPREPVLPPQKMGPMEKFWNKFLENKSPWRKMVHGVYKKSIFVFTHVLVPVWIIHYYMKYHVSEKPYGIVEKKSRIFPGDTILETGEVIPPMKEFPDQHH
UniProt P21359: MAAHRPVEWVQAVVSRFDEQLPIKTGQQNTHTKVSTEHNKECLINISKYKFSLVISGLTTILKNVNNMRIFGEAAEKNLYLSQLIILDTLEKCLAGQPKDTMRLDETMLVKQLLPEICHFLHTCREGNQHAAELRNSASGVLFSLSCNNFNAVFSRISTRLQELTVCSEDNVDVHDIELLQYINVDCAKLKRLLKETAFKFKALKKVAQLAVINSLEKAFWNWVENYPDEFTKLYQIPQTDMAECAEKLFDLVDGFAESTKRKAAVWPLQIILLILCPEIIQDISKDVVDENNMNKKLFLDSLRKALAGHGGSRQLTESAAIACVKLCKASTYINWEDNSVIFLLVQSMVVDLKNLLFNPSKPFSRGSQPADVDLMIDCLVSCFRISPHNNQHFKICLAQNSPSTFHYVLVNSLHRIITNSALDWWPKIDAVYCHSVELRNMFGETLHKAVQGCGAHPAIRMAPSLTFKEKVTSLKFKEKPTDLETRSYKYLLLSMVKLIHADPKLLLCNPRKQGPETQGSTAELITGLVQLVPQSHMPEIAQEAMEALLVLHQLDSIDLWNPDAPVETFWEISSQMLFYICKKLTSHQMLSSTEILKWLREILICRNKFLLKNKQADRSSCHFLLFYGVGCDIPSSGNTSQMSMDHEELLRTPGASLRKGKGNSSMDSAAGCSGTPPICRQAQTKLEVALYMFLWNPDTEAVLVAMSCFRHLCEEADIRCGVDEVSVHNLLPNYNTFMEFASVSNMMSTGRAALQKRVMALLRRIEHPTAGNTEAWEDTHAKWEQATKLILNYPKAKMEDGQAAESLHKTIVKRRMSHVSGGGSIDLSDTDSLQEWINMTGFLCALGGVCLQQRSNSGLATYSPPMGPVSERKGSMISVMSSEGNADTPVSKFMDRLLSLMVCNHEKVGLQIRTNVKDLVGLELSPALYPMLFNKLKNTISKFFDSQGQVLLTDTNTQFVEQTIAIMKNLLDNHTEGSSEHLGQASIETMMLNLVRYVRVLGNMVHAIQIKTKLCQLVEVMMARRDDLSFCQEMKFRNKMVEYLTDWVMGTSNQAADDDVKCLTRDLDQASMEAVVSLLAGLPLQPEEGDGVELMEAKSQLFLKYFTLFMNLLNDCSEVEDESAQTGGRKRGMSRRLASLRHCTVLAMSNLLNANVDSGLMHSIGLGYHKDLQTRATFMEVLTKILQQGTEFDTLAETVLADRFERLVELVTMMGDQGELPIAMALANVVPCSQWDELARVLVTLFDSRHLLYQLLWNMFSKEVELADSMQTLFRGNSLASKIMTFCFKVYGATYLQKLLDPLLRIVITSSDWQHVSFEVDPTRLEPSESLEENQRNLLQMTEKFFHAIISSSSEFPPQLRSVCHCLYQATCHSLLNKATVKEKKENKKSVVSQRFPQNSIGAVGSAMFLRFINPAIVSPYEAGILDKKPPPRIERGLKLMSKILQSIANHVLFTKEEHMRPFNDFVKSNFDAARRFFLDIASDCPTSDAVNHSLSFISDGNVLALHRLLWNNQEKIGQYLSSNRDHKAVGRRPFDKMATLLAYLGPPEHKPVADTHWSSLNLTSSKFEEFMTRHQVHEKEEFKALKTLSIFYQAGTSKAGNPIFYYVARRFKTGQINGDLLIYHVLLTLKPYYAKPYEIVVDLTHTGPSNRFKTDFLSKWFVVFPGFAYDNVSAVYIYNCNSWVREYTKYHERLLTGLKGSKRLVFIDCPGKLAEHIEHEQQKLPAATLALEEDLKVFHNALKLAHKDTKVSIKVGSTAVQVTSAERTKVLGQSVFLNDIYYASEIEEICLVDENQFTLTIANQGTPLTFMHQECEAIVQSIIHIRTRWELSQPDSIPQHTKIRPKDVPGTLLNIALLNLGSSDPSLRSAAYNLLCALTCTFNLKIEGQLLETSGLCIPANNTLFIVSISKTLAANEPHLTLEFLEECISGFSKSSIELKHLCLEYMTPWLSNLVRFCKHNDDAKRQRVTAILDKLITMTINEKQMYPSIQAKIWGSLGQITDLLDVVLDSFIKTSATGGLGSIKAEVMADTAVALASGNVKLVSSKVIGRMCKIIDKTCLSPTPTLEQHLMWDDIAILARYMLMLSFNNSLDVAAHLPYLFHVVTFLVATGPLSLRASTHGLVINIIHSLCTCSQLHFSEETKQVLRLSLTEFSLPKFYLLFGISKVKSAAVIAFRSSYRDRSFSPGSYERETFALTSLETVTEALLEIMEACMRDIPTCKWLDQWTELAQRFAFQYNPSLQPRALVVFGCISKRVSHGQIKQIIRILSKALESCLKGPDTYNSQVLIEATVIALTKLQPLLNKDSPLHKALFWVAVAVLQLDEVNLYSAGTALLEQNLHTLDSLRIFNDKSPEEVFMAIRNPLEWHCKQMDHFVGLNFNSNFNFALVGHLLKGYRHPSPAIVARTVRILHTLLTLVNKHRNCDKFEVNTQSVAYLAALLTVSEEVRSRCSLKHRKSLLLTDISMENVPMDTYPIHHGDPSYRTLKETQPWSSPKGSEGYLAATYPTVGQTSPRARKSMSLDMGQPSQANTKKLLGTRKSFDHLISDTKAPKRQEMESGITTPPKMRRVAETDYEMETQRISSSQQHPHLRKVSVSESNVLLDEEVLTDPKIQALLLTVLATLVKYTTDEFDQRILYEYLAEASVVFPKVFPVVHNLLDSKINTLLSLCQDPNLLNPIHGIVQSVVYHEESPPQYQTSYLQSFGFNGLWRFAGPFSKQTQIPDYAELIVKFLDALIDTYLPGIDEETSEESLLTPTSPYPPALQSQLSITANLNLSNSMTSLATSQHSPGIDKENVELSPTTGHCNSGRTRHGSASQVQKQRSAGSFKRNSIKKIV
UniProt Q9BYT8, whole entry, looked up: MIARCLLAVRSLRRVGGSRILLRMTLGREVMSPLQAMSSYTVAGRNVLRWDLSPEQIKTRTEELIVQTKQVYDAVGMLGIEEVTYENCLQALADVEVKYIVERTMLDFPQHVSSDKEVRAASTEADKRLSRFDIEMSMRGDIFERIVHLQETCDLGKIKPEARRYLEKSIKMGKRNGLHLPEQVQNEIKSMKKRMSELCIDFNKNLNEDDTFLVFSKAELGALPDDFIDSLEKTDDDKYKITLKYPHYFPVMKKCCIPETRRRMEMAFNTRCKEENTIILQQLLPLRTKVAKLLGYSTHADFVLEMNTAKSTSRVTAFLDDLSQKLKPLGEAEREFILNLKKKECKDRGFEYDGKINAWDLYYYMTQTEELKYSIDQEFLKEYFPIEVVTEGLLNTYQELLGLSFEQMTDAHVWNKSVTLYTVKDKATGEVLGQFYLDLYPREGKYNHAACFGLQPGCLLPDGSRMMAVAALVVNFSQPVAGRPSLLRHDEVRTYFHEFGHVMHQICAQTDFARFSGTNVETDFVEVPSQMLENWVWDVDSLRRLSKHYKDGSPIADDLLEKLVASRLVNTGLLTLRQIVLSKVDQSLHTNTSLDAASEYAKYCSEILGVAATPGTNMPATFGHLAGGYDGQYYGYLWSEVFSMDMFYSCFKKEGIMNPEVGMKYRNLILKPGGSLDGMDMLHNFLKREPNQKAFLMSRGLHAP
UniProt Q9BPW8: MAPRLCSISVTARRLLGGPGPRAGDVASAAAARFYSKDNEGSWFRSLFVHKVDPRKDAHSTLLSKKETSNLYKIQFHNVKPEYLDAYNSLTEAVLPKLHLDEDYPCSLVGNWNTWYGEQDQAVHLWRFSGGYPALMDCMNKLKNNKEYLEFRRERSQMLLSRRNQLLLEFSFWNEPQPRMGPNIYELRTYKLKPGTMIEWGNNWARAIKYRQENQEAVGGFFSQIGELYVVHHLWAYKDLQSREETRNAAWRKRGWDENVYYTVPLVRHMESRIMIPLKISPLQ
UniProt Q9UFN0: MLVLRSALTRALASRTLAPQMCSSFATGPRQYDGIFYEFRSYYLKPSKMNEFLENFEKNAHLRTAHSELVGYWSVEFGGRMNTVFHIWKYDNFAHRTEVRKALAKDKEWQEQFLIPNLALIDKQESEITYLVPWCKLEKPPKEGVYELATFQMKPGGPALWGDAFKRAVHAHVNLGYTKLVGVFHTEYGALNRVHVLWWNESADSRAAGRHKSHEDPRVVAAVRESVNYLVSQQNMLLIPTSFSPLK
UniProt P52849: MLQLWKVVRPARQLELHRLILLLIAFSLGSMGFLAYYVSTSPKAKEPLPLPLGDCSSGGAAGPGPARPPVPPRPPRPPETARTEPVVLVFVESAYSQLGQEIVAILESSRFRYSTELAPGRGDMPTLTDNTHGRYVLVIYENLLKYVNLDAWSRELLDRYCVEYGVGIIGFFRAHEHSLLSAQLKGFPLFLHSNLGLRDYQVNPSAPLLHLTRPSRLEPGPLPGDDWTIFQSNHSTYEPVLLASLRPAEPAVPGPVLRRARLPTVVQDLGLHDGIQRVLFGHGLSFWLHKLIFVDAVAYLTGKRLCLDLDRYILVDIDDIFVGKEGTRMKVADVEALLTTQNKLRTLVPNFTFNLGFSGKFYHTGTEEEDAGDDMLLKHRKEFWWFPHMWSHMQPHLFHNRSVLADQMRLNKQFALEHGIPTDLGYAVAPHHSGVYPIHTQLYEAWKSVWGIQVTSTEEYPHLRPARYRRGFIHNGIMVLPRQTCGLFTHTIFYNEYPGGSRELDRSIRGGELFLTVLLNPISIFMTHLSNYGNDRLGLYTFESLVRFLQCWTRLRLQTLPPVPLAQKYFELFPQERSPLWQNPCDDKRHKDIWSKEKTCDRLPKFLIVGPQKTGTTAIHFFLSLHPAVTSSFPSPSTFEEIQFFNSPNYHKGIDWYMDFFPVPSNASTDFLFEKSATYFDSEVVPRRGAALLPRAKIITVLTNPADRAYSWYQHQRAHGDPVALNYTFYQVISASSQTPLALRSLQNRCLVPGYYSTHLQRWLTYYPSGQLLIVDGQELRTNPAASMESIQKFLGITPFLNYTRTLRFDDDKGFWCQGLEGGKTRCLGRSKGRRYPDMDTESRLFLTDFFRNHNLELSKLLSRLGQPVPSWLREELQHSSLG
UniProt P25208: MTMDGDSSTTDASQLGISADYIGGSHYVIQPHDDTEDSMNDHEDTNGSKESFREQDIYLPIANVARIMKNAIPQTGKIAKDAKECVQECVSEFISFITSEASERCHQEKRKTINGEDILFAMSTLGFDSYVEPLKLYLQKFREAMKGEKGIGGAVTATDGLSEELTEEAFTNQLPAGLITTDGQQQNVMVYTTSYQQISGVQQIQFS
UniProt Q96IV0: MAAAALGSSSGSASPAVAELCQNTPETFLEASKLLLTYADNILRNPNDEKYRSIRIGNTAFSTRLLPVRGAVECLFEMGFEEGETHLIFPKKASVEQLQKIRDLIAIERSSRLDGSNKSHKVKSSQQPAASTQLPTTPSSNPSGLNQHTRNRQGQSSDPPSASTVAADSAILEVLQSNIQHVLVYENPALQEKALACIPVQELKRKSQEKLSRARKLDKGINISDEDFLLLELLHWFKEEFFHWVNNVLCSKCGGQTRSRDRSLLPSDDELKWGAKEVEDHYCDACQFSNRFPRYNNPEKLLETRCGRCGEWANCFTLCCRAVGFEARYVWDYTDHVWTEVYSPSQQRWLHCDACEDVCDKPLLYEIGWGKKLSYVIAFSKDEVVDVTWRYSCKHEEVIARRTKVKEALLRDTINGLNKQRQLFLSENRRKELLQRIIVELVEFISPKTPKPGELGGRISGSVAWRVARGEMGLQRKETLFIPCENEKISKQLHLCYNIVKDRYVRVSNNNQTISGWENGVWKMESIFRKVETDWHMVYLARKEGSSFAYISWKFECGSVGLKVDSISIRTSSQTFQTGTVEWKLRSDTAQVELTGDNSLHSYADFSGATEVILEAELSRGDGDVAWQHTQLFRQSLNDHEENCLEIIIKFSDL
UniProt Q9NPE2: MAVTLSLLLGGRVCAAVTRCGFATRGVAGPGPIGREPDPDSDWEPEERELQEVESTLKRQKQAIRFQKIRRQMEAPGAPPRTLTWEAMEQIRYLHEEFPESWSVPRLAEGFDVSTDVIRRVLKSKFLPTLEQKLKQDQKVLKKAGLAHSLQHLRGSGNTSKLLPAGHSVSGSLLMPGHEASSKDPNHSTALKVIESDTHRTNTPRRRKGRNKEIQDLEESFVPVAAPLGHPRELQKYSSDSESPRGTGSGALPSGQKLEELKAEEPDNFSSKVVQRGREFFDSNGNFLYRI
UniProt O95298, whole entry, looked up: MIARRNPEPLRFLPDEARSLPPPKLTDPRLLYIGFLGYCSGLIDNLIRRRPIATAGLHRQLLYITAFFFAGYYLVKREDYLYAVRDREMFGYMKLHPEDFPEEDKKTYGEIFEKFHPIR
UniProt Q16718, whole entry, looked up: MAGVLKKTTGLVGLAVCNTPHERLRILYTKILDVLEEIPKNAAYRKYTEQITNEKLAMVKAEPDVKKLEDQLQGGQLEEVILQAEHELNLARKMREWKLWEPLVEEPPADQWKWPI

Assays:
Experiment in all cases: log2 fold change, soluble protein after heating vs DMSO (PISA); higher = thermal stabilisation; K562 lysate, 10 uM; active = over 0.2 and 3.5 SD of the protein, either way, in both replicates (recomputed)
alvocidib = compound: CN1CC[C@H](c2c(O)cc(O)c3c(=O)cc(-c4ccccc4Cl)oc23)[C@H](O)C1 [alvocidib]
Procedure, shortened: (§1)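 The values are log-two fold changes in thermal stability compared with solvent controls and come from duplicates. They were obtained by TMTpro 16plex LC-MS/MS, with channel sums equalised, on the supernatant after 21,000xg for 90 min. That supernatant came from crude K562 extract at 1 mg/mL protein treated with 10 μM compound for 30 min, heated for 3 min across 48°C-58°C, pooled and brought to 0.5% NP-40 at 4°C.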

Tubastatin A = compound: CN1CCc2c(c3ccccc3n2Cc2ccc(C(=O)NO)cc2)C1 [Tubastatin A]
Procedure, shortened: as §1

[1] = compound: CNC(=O)C1=CC=CC=C1NC2=NC(=NC=C2Cl)NC3=C(C=C(C=C3)N4CCOCC4)OC
Procedure, shortened: as §1

defactinib = compound: CNC(=O)c1ccc(Nc2ncc(C(F)(F)F)c(NCc3nccnc3N(C)S(C)(=O)=O)n2)cc1 [defactinib]
Procedure, shortened: as §1

[2] = compound: CNc1nc(-c2ccc3c(N)n[nH]c3c2)cc(N2C[C@@H](C(=O)NC3CCCCC3)CC[C@H]2C)n1
Procedure, shortened: as §1

encorafenib = compound: COC(=O)N[C@@H](C)CNc1nccc(-c2cn(C(C)C)nc2-c2cc(Cl)cc(NS(C)(=O)=O)c2F)n1 [encorafenib]
Procedure, shortened: as §1

[3] = compound: COC(=O)[C@H](CCSC)NC(=O)C1=C(C=C(C=C1)NC[C@H](CS)N)C2=CC=CC=C2
Procedure, shortened: as §1

alisertib = compound: COc1cc(Nc2ncc3c(n2)-c2ccc(Cl)cc2C(c2c(F)cccc2OC)=NC3)ccc1C(=O)O [alisertib]
Procedure, shortened: as §1

[4] = compound: COc1cc2nc(-c3cc(F)ccc3O)nc(N[C@@H]3CNC[C@H]3C(C)(C)O)c2cc1OC
Procedure, shortened: as §1

gefitinib = compound: COc1cc2ncnc(Nc3ccc(F)c(Cl)c3)c2cc1OCCCN1CCOCC1 [gefitinib]
Procedure, shortened: as §1

Measured: log2 fold change

NFKB2 (UniProt Q00653)
inactive: alvocidib 0.011 | Tubastatin A -0.103 | [1] 0.021 | defactinib -0.016 | [2] -0.042 | encorafenib 0.081 | [3] 0.101 | alisertib 0.01 | [4] -0.021 | gefitinib -0.015

NDUFAB1 (UniProt O14561)
inactive: alvocidib 0.044 | Tubastatin A 0.064 | [1] 0.035 | defactinib 0.026 | [2] 0.039 | encorafenib -0.009 | [3] -0.117 | alisertib -0.052 | [4] 0.024 | gefitinib -0.095

NFU1 (UniProt Q9UMS0)
inactive: alvocidib 0.048 | Tubastatin A 0.026 | [1] -0.001 | defactinib -0.019 | [2] 0.018 | encorafenib -0.008 | [3] -0.027 | alisertib 0.046 | [4] 0.012 | gefitinib -0.061

NDUFB6 (UniProt O95139)
inactive: alvocidib -0.048 | Tubastatin A 0.016 | [1] -0.007 | defactinib 0.01 | [2] -0.017 | encorafenib 0.042 | [3] -0.042 | alisertib -0.013 | [4] 0.008 | gefitinib 0.031

NEK9 (UniProt Q8TD19)
inactive: alvocidib -0.062 | Tubastatin A -0.062 | [1] 0.193 | defactinib 0.08 | [2] -0.009 | encorafenib -0.018 | [3] -0.008 | alisertib -0.048 | [4] -0.01 | gefitinib -0.039

NLRP2 (UniProt Q9NX02)
active: [3] -0.239
inactive: alvocidib 0.034 | Tubastatin A -0.227 | [1] 0 | defactinib 0.024 | [2] -0.044 | encorafenib 0.034 | alisertib -0.025 | [4] 0 | gefitinib -0.012

NF1 (UniProt P21359)
inactive: alvocidib 0.03 | Tubastatin A -0.098 | [1] 0.029 | defactinib 0.012 | [2] 0.009 | encorafenib 0.026 | [3] -0.267 | alisertib 0.03 | [4] 0.006 | gefitinib 0.058

NDOR1 isoform 2 (UniProt Q9UHB4)
inactive: alvocidib -0.006 | Tubastatin A 0.005 | [1] 0.032 | defactinib 0.042 | [2] 0.003 | encorafenib 0.011 | [3] -0.067 | alisertib -0.043 | [4] 0.036 | gefitinib -0.031

NLN (UniProt Q9BYT8)
inactive: alvocidib 0.038 | Tubastatin A 0.046 | [1] 0.003 | defactinib -0.009 | [2] -0.002 | encorafenib 0.006 | [3] 0.045 | alisertib 0.013 | [4] 0.011 | gefitinib -0.009

NIPSNAP1 (UniProt Q9BPW8)
inactive: alvocidib -0.005 | Tubastatin A -0.028 | [1] 0.075 | defactinib -0.029 | [2] 0.035 | encorafenib -0.039 | [3] 0.042 | alisertib -0.022 | [4] -0.094 | gefitinib -0.051

NIPSNAP3A (UniProt Q9UFN0)
inactive: Tubastatin A 0.015 | [1] 0.016 | defactinib -0.021 | [2] 0.025 | encorafenib 0.016 | [3] -0.022 | alisertib -0.023 | [4] 0.005 | gefitinib -0.023
active: alvocidib 0.288

NDUFAF3 (UniProt Q9BU61)
inactive: alvocidib -0.008 | Tubastatin A -0.05 | [1] 0 | defactinib 0.048 | [2] -0.021 | encorafenib 0.03 | [3] -0.046 | alisertib -0.003 | [4] -0.076 | gefitinib -0.001

NDST2 (UniProt P52849)
inactive: alvocidib 0.097 | Tubastatin A -0.037 | [1] -0.087 | defactinib 0.01 | [2] 0.024 | encorafenib 0.13 | [3] 0.253 | alisertib -0.023 | [4] 0.057 | gefitinib 0.035

NES (UniProt P48681)
inactive: alvocidib -0.008 | Tubastatin A 0.008 | [1] 0.023 | defactinib 0.02 | [2] -0.046 | encorafenib 0.018 | [3] -0.137 | alisertib -0.007 | [4] 0.025 | gefitinib 0.011

NFYB (UniProt P25208)
inactive: alvocidib -0.009 | Tubastatin A 0.017 | [1] -0.019 | defactinib -0.038 | [2] -0.035 | encorafenib 0.036 | [3] -0.01 | alisertib -0.032 | [4] 0.006 | gefitinib -0.021

NDUFS4 (UniProt O43181)
inactive: alvocidib -0.03 | Tubastatin A -0.017 | [1] -0.052 | defactinib -0.008 | [2] -0.005 | encorafenib -0.016 | [3] -0.029 | alisertib -0.04 | [4] -0.018 | gefitinib 0.042

NFYC (UniProt Q13952)
inactive: alvocidib -0.058 | Tubastatin A 0.055 | [1] 0.019 | defactinib -0.025 | [2] 0.026 | encorafenib 0.025 | [3] -0.03 | alisertib -0.012 | [4] -0.01 | gefitinib 0.029

NGLY1 (UniProt Q96IV0)
inactive: alvocidib -0.041 | Tubastatin A -0.089 | [1] -0.013 | defactinib 0.022 | [2] 0 | encorafenib -0.009 | [3] 0.111 | alisertib 0.002 | [4] 0.001 | gefitinib -0.044

NEBL (UniProt O76041)
inactive: alvocidib 0.149 | Tubastatin A 0.022 | [1] -0.048 | defactinib 0.024 | [2] 0.043 | encorafenib -0.083 | [3] 0.015 | alisertib -0.134 | [4] -0.005 | gefitinib 0

NFE2 (UniProt Q16621)
inactive: alvocidib -0.017 | Tubastatin A -0.072 | [1] 0.002 | defactinib 0.059 | [2] -0.013 | encorafenib 0.032 | [3] -0.093 | alisertib -0.005 | [4] -0.006 | gefitinib 0.043

Retrieved one by one from the entries so far, 2 records:
NDUFS4 (UniProt O43181)
inactive: alvocidib -0.03 | Tubastatin A -0.017 | [1] -0.052 | defactinib -0.008 | [2] -0.005 | encorafenib -0.016 | [3] -0.029 | alisertib -0.04 | [4] -0.018 | gefitinib 0.042

NEBL (UniProt O76041)
inactive: alvocidib 0.149 | Tubastatin A 0.022 | [1] -0.048 | defactinib 0.024 | [2] 0.043 | encorafenib -0.083 | [3] 0.015 | alisertib -0.134 | [4] -0.005 | gefitinib 0

Following part:

NEDD4 isoform 4 (UniProt P46934)
inactive: alvocidib 0.006 | Tubastatin A 0.169 | [1] 0.016 | defactinib 0.025 | [2] -0.037 | encorafenib 0.017 | [3] -0.045 | alisertib 0.007 | [4] 0.018 | gefitinib -0.022

NGRN (UniProt Q9NPE2)
inactive: alvocidib -0.008 | Tubastatin A 0.005 | [1] -0.047 | defactinib -0.013 | [2] -0.011 | encorafenib -0.01 | [3] -0.015 | alisertib -0.091 | [4] -0.015 | gefitinib 0.037

NDUFC2 (UniProt O95298)
inactive: alvocidib 0.014 | Tubastatin A 0.036 | [1] -0.017 | defactinib -0.007 | [2] 0.099 | encorafenib 0.007 | [3] -0.028 | alisertib -0.036 | [4] -0.016 | gefitinib 0.024

NFATC3 (UniProt Q12968)
inactive: alvocidib -0.023 | Tubastatin A -0.093 | [1] 0.013 | defactinib 0.022 | [2] 0.033 | encorafenib 0.067 | [3] 0.035 | alisertib -0.004 | [4] -0.007 | gefitinib 0

NHLRC3 (UniProt Q5JS37)
inactive: alvocidib -0.005 | Tubastatin A 0.062 | [1] 0.069 | defactinib -0.069 | [2] -0.059 | encorafenib 0 | [3] 0.006 | alisertib 0.034 | [4] 0.006 | gefitinib 0.08

NIBAN2 (UniProt Q96TA1)
inactive: alvocidib 0.034 | Tubastatin A -0.009 | [1] 0.005 | defactinib 0.005 | [2] 0.01 | encorafenib 0.024 | [3] -0.046 | alisertib 0.004 | [4] 0.009 | gefitinib 0.015

NDUFB7 (UniProt P17568)
inactive: alvocidib 0.022 | Tubastatin A 0.181 | [1] -0.007 | defactinib 0.012 | [2] 0.151 | encorafenib -0.038 | [3] -0.034 | alisertib 0.042 | [4] -0.044 | gefitinib -0.022

NDUFB10 (UniProt O96000)
inactive: alvocidib 0.014 | Tubastatin A 0.057 | [1] -0.016 | defactinib 0.021 | [2] 0.026 | encorafenib -0.01 | [3] 0.008 | alisertib 0.034 | [4] -0.014 | gefitinib -0.033

NDUFA5 (UniProt Q16718)
inactive: alvocidib 0.079 | Tubastatin A 0.085 | [1] 0.028 | defactinib 0.099 | [2] 0.059 | encorafenib 0.019 | [3] -0.15 | alisertib -0.001 | [4] -0.052 | gefitinib -0.157

NFAT5 isoform 5 (UniProt O94916)
active: gefitinib 0.454
inactive: alvocidib -0.026 | Tubastatin A 0.003 | [1] -0.027 | defactinib 0.007 | [2] 0.077 | encorafenib 0.043 | [3] -0.041 | alisertib -0.072 | [4] -0.01
